# Assay results published in patent publication US20220340849A1, “BRAIN-CHIP MODELING NEURODEGENERATION AND NEUROINFLAMMATION IN PARKINSON'S DISEASE” (EMULATE, INC., priority 2019, published 2022).
# Experiments:
# [1] = test system: cells of brain parenchyma (Brain Channel); assay: RNA-seq differential gene expression, brain channel, TNFα exposed vs Healthy Brain-Chips; assay type: cell-based, human
# [2] = test system: endothelial cells (Vascular Channel); assay: RNA-seq differential gene expression, vascular channel, TNFα exposed vs Healthy Brain-Chips; assay type: cell-based, human
# [3] = Neuroinflammation (TNFα in brain channel) vs Healthy Brain-Chips
# [4] = Systemic Inflammation (TNFα in vascular channel) vs Healthy Brain-Chips
substance,measurement,setting,value
TNF-α,# down-regulated,[1]; [3],373
same,# up-regulated,[1]; [3],801
same,# DE Genes,"[1]; Neuroinflammation (TNFα in brain channel) vs Healthy Brain-Chips, adj.p<0.01, |log2FC|>1",1174
same,# DE Genes,[1]; [4],528
same,# down-regulated,[1]; [4],55
same,# up-regulated,[1]; [4],473
same,# DE Genes,[2]; [3],387
same,# DE Genes,[2]; [4],422
same,# down-regulated,[2]; [4],51
same,# up-regulated,[2]; [4],371
